Weaker means in comparison with the reference protein, sequence or condition of that experiment. Tags and fusion partners may be left off the protein sequences shown.
Molecular target: T1, Gbn (SCO1839) (Streptomyces coelicolor A3(2) M145) (UniProt Q9RJ29)
T1 sequence (looked up): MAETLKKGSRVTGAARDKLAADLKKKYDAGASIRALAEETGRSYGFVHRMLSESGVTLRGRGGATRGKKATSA
Experiment: EMSA
Conditions: binds, with higher half-binding concentration than N1, 5 nM DNA; EMSA: 10 mM Tris-HCl pH 7.9, 0.1 mM EDTA, 50 mM KCl, 30 C 15 min, 5% PAGE, ethidium bromide; recombinant protein; residues 1-73

“TCGATGTAGGACACACCTCTTGATGAGGAGATCTCACACAGATGGCGGAT (double strand) [p1839_50Single_weak (+, GATC)]”: binds more weakly.

From PMC9239103, “System-Wide Analysis of the GATC-Binding Nucleoid-Associated Protein Gbn and Its Impact on Streptomyces Development”
